Whole data set: some 33,000 sequences, median “E-score (-0.5 to 0.5)” near -0.015, cut for the highest 2% near 0.3. The list shows a part of the results.

The target of this test is T1, Abf1 (UniProt P14164).
T1 sequence: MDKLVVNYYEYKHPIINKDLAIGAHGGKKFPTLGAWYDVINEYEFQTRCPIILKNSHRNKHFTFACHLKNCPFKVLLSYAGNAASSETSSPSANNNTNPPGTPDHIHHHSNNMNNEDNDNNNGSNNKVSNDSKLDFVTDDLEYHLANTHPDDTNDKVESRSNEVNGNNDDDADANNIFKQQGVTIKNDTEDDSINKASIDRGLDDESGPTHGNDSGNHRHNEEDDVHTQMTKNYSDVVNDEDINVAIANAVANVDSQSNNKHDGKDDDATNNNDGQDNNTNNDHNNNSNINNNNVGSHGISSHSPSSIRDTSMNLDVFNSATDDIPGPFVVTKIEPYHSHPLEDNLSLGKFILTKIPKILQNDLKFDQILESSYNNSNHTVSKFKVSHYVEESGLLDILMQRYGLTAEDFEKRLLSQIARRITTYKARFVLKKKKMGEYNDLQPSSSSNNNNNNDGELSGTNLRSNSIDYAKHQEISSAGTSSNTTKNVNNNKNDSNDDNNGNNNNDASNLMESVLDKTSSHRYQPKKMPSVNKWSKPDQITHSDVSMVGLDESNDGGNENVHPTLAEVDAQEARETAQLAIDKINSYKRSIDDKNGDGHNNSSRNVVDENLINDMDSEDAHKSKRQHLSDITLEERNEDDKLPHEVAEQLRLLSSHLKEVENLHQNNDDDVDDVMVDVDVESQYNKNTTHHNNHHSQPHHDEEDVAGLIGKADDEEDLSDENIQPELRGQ
Briefly: PBM E-score (8-mer binding enrichment) (E-score (-0.5 to 0.5)); higher = stronger / more preferred TF binding. The settings on record: protein concentration: 200 nM; construct: GST-full length. Summed up:
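Using PURExpress in vitro transcription/translation, GST-tagged yeast transcription factors were made in full-length or DNA-binding-domain form. These were applied at about 100-200 nM to double-stranded universal all-10-mer Agilent arrays, and bound protein was detected with fluorescent anti-GST. Scans were normalised with masliner before the Universal PBM Analysis Suite assigned E-scores to ungapped eight-base words pooled with their reverse complements.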
Turning to CAGAGATC, the “PBM E-score” value is -0.151.

As for TAGGCACA, the “PBM E-score” value was -0.153.

Regarding GTGATTTA, the “PBM E-score” value turned out to be 0.317.

As to CCCTTGTA, the “PBM E-score” value was -0.119.

On to AGACGACG, for which the “PBM E-score” value came to 0.235.

Turning to ATCCAGTA, the “PBM E-score” value was -0.1.

In the case of GCATGCCC, the “PBM E-score” value was -0.0869.

As to AAAAGGAG, the “PBM E-score” value is -0.268.

In the case of GGGTTGAC, the “PBM E-score” value is -0.144.

On to AATCGTGG, for which the “PBM E-score” value amounted to 0.125.

CCCTCACG: the “PBM E-score” value was -0.0983.

For the sequence AATTTTTG, the “PBM E-score” value stood at 0.211.

Consider AAGTCAAA, for which the “PBM E-score” value is -0.0446.

For TGAGGACA, the “PBM E-score” value stood at 0.0941.

As for AAGCACGG, the “PBM E-score” value stood at 0.0624.

Consider GCTCGCAC, for which the “PBM E-score” value was -0.00456.

CCTACAGC: the “PBM E-score” value is -0.195.

With TCTAACCA, the “PBM E-score” value was found to be 0.0286.

As for CGGCCGGA, the “PBM E-score” value was -0.18.

Turning to CCGCTTAG, the “PBM E-score” value was -0.281.

Turning to CCCACAGG, the “PBM E-score” value is -0.0723.

For AAACATTA, the “PBM E-score” value was -0.152.

In the case of CTTGTCGC, the “PBM E-score” value was -0.0296.

As to TATCGAAA, the “PBM E-score” value turned out to be 0.112.

In the case of TACGCATA, the “PBM E-score” value is 0.108.

As for AGGGAACA, the “PBM E-score” value was -0.253.

For AACTAAAG, the “PBM E-score” value came to 0.0418.

On to ACTGAGAT, for which the “PBM E-score” value is -0.075.

Regarding ATCAAGGG, the “PBM E-score” value was 0.0736.

Regarding AAATATGG, the “PBM E-score” value stood at 0.00692.

On to CTTGGGCC, for which the “PBM E-score” value was -0.163.

Turning to ACGACGAT, the “PBM E-score” value turned out to be 0.315.

With CGAGCACC, the “PBM E-score” value is 0.00575.

Regarding CAGGATTA, the “PBM E-score” value is -0.177.

As to GTATCAAC, the “PBM E-score” value worked out at 0.0912.

For GCCCATCA, the “PBM E-score” value was -0.281.

As to AGACCTTC, the “PBM E-score” value is -0.111.

Consider CCTGACTC, for which the “PBM E-score” value was -0.142.

In the case of CATCTTCA, the “PBM E-score” value is -0.0966.

For the sequence CAGAGATG, the “PBM E-score” value is -0.0561.

Consider CTCTCGCA, for which the “PBM E-score” value is -0.126.

Regarding CCCAAGAC, the “PBM E-score” value is -0.141.

Turning to AACTGAAA, the “PBM E-score” value amounted to 0.0208.

As for GCGATCCC, the “PBM E-score” value is -0.13.

As to GCGCCCGC, the “PBM E-score” value was -0.161.

CATCGGTC: the “PBM E-score” value was -0.145.

As for CCAGCGCG, the “PBM E-score” value is -0.156.

Regarding GCAAGAAC, the “PBM E-score” value turned out to be 0.0235.

Regarding TCAATTGA, the “PBM E-score” value worked out at 0.164.

ACTACCGG: the “PBM E-score” value was -0.0793.

In the case of GCAATGGA, the “PBM E-score” value is -0.0961.

On to CTGGGGCC, for which the “PBM E-score” value was -0.366.

In the case of AAACAAGT, the “PBM E-score” value was -0.139.

For AAGTGGCA, the “PBM E-score” value is -0.113.

Turning to GATGCCCC, the “PBM E-score” value is -0.172.

As to AGCCCCGC, the “PBM E-score” value is -0.217.

For GTTAAACA, the “PBM E-score” value came to 0.106.

In the case of CGCTAATA, the “PBM E-score” value is -0.002.

As to ATTGACCA, the “PBM E-score” value amounted to 0.0193.

Consider TCGCAACA, for which the “PBM E-score” value is -0.014.

For CTGCCTCA, the “PBM E-score” value was -0.198.

With GATTAGCA, the “PBM E-score” value was 0.0185.

As to CTGACCAA, the “PBM E-score” value amounted to 0.102.

With AGCAACCT, the “PBM E-score” value was -0.209.

For the sequence GGGGAACC, the “PBM E-score” value is -0.304.

In the case of TGGTCACA, the “PBM E-score” value was 0.0583.

For ACCGGGTG, the “PBM E-score” value was -0.0777.

As to ACCTGACG, the “PBM E-score” value was -0.0385.

In the case of ACCGTGAT, the “PBM E-score” value amounted to 0.213.

GCACCCCC: the “PBM E-score” value is -0.312.

With CTCTCGTA, the “PBM E-score” value stood at 0.0372.

Take ACCACGTC: the “PBM E-score” value stood at 0.0678.

In the case of AGCAGTAC, the “PBM E-score” value was -0.0878.

GCAATTCC: the “PBM E-score” value was determined as 0.0466.

Consider ACCACATC, for which the “PBM E-score” value came to 0.136.

For ATGTTGAG, the “PBM E-score” value is -0.0175.

AACTTTGG: the “PBM E-score” value came out at 0.0844.

AACAGGTG: the “PBM E-score” value was -0.0707.

Regarding CCTCAGAC, the “PBM E-score” value is -0.1.

As for GGGGTACA, the “PBM E-score” value was -0.275.

In the case of ACAATACC, the “PBM E-score” value stood at 0.121.

Take CCAAATCG: the “PBM E-score” value was -0.00456.

As for ACGTCCCT, the “PBM E-score” value was 0.141.

ACGATAAA: the “PBM E-score” value came to 0.352.

Regarding ATATCTGC, the “PBM E-score” value stood at 0.179.

For the sequence CTCAAACA, the “PBM E-score” value amounted to 0.0674.
